Experimental data as given in article PMC4627417.
Results are given in words; binding and its absence hold for the method and conditions named. In cells and extracts the contact can be indirect. A yes stands for co-enrichment or nearness to the bait. Other partners may have been found. Where a sequence is shown, tags or fusion partners need not be part of it.

B1: CSTF3 (protein, UniProt Q12996 1-717)
chain: MSGDGATEQAAEYVPEKVKKAEKKLEENPYDLDAWSILIREAQNQPIDKARKTYERLVAQFPSSGRFWKLYIEAEIKAKNYDKVEKLFQRCLMKVLHIDLWKCYLSYVRETKGKLPSYKEKMAQAYDFALDKIGMEIMSYQIWVDYINFLKGVEAVGSYAENQRITAVRRVYQRGCVNPMINIEQLWRDYNKYEEGINIHLAKKMIEDRSRDYMNARRVAKEYETVMKGLDRNAPSVPPQNTPQEAQQVDMWKKYIQWEKSNPLRTEDQTLITKRVMFAYEQCLLVLGHHPDIWYEAAQYLEQSSKLLAEKGDMNNAKLFSDEAANIYERAISTLLKKNMLLYFAYADYEESRMKYEKVHSIYNRLLAIEDIDPTLVYIQYMKFARRAEGIKSGRMIFKKAREDTRTRHHVYVTAALMEYYCSKDKSVAFKIFELGLKKYGDIPEYVLAYIDYLSHLNEDNNTRVLFERVLTSGSLPPEKSGEIWARFLAFESNIGDLASILKVEKRRFTAFKEEYEGKETALLVDRYKFMDLYPCSASELKALGYKDVSRAKLAAIIPDPVVAPSIVPVLKDEVDRKPEYPKPDTQQMIPFQPRHLAPPGLHPVPGGVFPVPPAAVVLMKLLPPPICFQGPFVQVDELMEIFRRCKIPNTVEEAVRIITGGAPELAVEGNGPVESNAVLTKAVKRPNEDSDEDEEKGAVVPPVHDIYRARQQKRIR
B2: TOP3B (protein, UniProt O95985 1-862)
chain: MKTVLMVAEKPSLAQSIAKILSRGSLSSHKGLNGACSVHEYTGTFAGQPVRFKMTSVCGHVMTLDFLGKYNKWDKVDPAELFSQAPTEKKEANPKLNMVKFLQVEGRGCDYIVLWLDCDKEGENICFEVLDAVLPVMNKAHGGEKTVFRARFSSITDTDICNAMACLGEPDHNEALSVDARQELDLRIGCAFTRFQTKYFQGKYGDLDSSLISFGPCQTPTLGFCVERHDKIQSFKPETYWVLQAKVNTDKDRSLLLDWDRVRVFDREIAQMFLNMTKLEKEAQVEATSRKEKAKQRPLALNTVEMLRVASSSLGMGPQHAMQTAERLYTQGYISYPRTETTHYPENFDLKGSLRQQANHPYWADTVKRLLAEGINRPRKGHDAGDHPPITPMKSATEAELGGDAWRLYEYITRHFIATVSHDCKYLQSTISFRIGPELFTCSGKTVLSPGFTEVMPWQSVPLEESLPTCQRGDAFPVGEVKMLEKQTNPPDYLTEAELITLMEKHGIGTDASIPVHINNICQRNYVTVESGRRLKPTNLGIVLVHGYYKIDAELVLPTIRSAVEKQLNLIAQGKADYRQVLGHTLDVFKRKFHYFVDSIAGMDELMEVSFSPLAATGKPLSRCGKCHRFMKYIQAKPSRLHCSHCDETYTLPQNGTIKLYKELRCPLDDFELVLWSSGSRGKSYPLCPYCYNHPPFRDMKKGMGCNECTHPSCQHSLSMLGIGQCVECESGVLVLDPTSGPKWKVACNKCNVVAHCFENAHRVRVSADTCSVCEAALLDVDFNKAKSPLPGDETQHMGCVFCDPVFQELVELKHAASCHPMHRGGPGRRQGRGRGRARRPPGKPNPRRPKDKMSALAAYFV
B3: NHP2 (protein, UniProt Q9NX24 1-153)
chain: MTKIKADPDGPEAQAEACSGERTYQELLVNQNPIAQPLASRRLTRKLYKCIKKAVKQKQIRRGVKEVQKFVNKGEKGIMVLAGDTLPIEVYCHLPVMCEDRNLPYVYIPSKTDLGAAAGSKRPTCVIMVKPHEEYQEAYDECLEEVQSLPLPL
B4: RBM42 (protein, UniProt Q9BTD8 1-480)
chain: MAGAGPAPGLPGAGGPVVPGPGAGIPGKSGEERLKEMEAEMALFEQEVLGAPVPGIPTAVPAVPTVPTVPTVEAMQVPAAPVIRPIIATNTYQQVQQTLEARAAAAATVVPPMVGGPPFVGPVGFGPGDRSHLDSPEAREAMFLRRAAVAPQRAPILRPAFVPHVLQRADSALSSAAAGPRPMALRPPHQALVGPPLPGPPGPPMMLPPMARAPGPPLGSMAALRPPLEEPAAPRELGLGLGLGLKEKEEAVVAAAAGLEEASAAVAVGAGGAPAGPAVIGPSLPLALAMPLPEPEPLPLPLEVVRGLLPPLRIPELLSLRPRPRPPRPEPPPGLMALEVPEPLGEDKKKGKPEKLKRCIRTAAGSSWEDPSLLEWDADDFRIFCGDLGNEVNDDILARAFSRFPSFLKAKVIRDKRTGKTKGYGFVSFKDPSDYVRAMREMNGKYVGSRPIKLRKSMWKDRNLDVVRKKQKEKKKLGLR

Biological target: 3XMyc-RPRD1B wild type (full length) (human) (UniProt Q9NQG5)
Test: affinity purification with mass spectrometry; SILAC: tetracycline-induced 3XMyc-RPRD1B WT (heavy) and MT (light) in 293 Flp-In cells, anti-Myc immunoprecipitates from total lysate combined and analysed by MS

Row | binding | Binder
1 | binds | B1
2 | binds | B2
3 | binds | B3
4 | binds | B4
